From article PMC11549291
Results are given in words; binding and its absence hold for the method and conditions named. In cells and extracts the contact can be indirect. Some entries that bind do so weakly or less than the wild type.

Sequences of proteins named here, by UniProt entry; tags and fusion partners are left off.
UniProt Q7RTP6: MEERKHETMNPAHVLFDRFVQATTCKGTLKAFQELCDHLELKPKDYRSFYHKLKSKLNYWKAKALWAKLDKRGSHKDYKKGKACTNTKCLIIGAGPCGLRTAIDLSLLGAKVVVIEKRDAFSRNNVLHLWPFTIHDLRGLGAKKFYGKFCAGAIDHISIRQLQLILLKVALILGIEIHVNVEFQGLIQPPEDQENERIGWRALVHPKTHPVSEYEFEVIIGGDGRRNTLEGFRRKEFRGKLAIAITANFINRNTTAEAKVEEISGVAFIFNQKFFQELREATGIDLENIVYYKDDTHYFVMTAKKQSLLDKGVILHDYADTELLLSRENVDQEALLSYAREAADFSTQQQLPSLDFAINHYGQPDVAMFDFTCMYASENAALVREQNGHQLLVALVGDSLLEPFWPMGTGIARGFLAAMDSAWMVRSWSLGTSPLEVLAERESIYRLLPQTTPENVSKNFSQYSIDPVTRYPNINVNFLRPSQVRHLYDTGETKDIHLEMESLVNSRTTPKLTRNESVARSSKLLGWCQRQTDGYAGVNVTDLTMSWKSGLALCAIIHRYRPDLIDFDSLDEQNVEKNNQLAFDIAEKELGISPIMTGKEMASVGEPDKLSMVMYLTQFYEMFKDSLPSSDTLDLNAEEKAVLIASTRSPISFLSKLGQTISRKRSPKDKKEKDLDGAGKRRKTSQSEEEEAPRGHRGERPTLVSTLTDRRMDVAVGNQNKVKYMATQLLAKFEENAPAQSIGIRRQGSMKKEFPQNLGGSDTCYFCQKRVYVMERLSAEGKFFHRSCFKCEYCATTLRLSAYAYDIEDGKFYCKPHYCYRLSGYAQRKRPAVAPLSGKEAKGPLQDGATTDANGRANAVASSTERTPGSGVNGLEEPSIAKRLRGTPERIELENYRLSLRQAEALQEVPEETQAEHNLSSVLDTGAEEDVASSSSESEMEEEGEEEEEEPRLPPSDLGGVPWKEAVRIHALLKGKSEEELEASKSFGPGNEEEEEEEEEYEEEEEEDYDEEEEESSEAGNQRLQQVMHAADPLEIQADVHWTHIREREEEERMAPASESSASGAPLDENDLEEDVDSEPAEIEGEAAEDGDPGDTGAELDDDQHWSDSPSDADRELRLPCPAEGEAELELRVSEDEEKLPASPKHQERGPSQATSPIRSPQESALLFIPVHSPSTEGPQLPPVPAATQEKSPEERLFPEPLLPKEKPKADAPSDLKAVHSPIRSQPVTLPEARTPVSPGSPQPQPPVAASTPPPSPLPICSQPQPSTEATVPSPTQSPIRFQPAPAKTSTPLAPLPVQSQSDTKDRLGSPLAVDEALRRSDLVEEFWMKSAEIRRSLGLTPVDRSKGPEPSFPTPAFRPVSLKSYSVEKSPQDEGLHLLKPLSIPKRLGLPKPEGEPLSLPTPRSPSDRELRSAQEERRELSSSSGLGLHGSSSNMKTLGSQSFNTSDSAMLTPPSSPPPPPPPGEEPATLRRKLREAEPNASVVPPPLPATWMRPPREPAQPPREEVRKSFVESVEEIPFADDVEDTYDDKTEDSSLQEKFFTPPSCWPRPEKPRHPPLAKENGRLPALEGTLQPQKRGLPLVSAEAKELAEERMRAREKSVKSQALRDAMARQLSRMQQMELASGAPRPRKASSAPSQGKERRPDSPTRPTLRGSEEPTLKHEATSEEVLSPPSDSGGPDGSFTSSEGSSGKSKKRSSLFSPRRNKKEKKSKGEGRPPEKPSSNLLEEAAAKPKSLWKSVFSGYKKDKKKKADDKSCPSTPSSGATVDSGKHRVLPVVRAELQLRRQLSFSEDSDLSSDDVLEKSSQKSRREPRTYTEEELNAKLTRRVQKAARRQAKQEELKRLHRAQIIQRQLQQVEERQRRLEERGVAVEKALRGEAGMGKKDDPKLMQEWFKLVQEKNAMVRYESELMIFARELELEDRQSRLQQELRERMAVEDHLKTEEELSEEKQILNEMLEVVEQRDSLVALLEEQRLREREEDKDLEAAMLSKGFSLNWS

Assays:
[1] = molecular target: T1, serine/threonine checkpoint kinase CHK1 (human (endogenous in HEK-293; endogenous in human oocytes and embryos)) (UniProt O14757); assay: co-IP; HEK-293 lysate, endogenous proteins; IP with the CHK1 antibody or with the MICAL3 antibody, Protein A/G magnetic beads, western blot; also after treatment of the cells with the CHK1 inhibitor PF477736 (interaction enhanced)
T1 sequence: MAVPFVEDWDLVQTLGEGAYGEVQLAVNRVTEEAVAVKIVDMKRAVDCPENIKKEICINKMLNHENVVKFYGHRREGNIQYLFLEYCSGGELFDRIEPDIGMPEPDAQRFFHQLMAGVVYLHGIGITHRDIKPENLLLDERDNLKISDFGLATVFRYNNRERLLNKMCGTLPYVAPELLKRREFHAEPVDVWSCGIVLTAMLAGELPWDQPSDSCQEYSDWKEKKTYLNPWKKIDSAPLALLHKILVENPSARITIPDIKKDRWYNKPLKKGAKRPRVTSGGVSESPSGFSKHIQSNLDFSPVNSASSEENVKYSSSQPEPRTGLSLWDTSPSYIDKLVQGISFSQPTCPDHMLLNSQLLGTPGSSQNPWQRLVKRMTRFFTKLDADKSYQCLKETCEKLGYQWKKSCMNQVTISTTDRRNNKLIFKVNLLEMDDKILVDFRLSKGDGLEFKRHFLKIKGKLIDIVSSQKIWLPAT

[2] = molecular target: T2, wild-type CHK1 (transfected construct) (UniProt O14757); assay: co-IP; HEK-293 cells transfected with constructs of wild-type or mutant CHK1; IP with the CHK1 antibody, western blot for MICAL3
T2 sequence: T1 sequence

[3] = molecular target: T1, serine/threonine checkpoint kinase CHK1 (human (endogenous in HEK-293; endogenous in human oocytes and embryos)); assay: proximity ligation; Duolink In Situ Red kit, fixed human GV oocyte, 2-cell and 4-cell embryos, rabbit anti-CHK1 and mouse anti-MICAL3 primary antibodies; GV oocyte without primary antibodies as control
[4] = molecular target: T1, serine/threonine checkpoint kinase CHK1 (human (endogenous in HEK-293; endogenous in human oocytes and embryos)); assay: proximity ligation; Duolink In Situ Red kit, fixed HEK-293 cells, rabbit anti-CHK1 and mouse anti-MICAL3 primary antibodies; negative control without primary antibodies

Measured: binding

MICAL3 (from UniProt Q7RTP6 1-2002)
binds: [1] | [2] | [3] | [4]
